The supplement of paper PMC10849652
The other results are listed elsewhere or left out.

Protein sequences, listed by entry. Tags and fused reporters are not part of them. Lines headed by an entry give the natural chain unless they say otherwise; changes in a name come on top.
UniProt Q8IUI8: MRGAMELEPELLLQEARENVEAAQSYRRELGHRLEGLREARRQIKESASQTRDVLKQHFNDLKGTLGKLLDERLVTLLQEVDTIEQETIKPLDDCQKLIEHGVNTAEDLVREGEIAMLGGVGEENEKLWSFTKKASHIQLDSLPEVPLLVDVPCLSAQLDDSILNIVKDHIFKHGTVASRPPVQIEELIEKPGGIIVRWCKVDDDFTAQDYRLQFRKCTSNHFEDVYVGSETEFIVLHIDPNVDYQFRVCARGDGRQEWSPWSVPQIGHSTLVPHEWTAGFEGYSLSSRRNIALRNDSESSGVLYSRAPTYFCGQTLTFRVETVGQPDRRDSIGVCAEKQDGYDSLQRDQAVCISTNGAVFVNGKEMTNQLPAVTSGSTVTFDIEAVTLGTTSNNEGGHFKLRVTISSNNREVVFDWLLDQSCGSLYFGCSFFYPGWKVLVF
UniProt P16220: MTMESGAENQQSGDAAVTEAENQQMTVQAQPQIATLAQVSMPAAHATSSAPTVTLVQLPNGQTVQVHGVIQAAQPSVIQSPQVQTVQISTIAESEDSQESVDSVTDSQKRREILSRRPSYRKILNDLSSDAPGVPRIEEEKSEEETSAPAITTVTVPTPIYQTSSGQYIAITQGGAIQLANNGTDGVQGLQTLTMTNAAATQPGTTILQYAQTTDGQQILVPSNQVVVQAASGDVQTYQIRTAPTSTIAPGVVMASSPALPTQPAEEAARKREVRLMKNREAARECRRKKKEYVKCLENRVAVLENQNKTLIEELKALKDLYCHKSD
UniProt P19784, whole entry, looked up: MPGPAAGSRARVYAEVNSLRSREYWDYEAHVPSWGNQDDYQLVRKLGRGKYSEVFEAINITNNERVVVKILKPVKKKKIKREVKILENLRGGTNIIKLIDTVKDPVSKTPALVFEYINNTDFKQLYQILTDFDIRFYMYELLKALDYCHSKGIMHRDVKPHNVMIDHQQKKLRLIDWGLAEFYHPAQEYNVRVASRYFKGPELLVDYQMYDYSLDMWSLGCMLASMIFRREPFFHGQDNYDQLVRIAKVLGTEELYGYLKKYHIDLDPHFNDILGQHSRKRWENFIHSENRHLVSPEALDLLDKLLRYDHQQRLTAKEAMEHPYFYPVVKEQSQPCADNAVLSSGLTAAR
UniProt Q2VPK5: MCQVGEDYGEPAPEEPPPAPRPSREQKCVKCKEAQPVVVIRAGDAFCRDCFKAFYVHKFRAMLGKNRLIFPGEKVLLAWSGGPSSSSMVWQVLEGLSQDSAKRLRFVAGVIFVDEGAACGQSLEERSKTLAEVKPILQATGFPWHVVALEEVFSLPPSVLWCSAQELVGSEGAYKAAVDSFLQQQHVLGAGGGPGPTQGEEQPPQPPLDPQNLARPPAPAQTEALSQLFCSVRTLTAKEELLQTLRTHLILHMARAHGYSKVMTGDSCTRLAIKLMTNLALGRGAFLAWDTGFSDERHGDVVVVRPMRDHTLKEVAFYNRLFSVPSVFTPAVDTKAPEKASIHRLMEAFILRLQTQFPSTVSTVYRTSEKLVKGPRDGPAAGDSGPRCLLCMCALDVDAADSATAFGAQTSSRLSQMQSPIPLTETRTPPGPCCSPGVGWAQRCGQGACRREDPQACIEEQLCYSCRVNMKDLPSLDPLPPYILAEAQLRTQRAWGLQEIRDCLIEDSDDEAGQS
UniProt P01034: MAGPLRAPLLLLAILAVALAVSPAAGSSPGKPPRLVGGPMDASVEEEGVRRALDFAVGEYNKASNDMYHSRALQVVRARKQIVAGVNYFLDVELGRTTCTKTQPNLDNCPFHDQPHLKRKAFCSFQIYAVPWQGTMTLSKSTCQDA
UniProt Q9UBR2: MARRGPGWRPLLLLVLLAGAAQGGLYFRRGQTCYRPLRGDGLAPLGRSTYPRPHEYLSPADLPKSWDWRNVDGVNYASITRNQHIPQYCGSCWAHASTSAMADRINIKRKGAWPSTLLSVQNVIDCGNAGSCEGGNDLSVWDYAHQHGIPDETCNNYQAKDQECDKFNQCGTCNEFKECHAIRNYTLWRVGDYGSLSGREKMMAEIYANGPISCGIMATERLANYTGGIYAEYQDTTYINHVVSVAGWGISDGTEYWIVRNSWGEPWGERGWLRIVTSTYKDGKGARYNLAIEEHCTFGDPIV
UniProt O75390: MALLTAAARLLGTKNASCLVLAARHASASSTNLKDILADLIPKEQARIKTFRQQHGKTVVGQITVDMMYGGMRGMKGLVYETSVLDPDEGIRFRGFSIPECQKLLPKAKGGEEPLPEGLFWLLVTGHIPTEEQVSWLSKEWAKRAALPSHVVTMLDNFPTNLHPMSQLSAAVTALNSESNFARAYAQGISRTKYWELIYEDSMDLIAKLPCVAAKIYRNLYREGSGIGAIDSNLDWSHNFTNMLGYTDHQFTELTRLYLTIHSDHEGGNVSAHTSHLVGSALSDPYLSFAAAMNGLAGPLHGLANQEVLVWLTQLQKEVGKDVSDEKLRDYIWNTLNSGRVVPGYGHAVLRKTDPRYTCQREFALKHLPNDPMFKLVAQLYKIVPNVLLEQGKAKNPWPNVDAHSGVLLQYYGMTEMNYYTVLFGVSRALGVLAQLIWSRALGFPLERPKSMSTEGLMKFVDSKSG
UniProt E9PJD7, whole entry, looked up: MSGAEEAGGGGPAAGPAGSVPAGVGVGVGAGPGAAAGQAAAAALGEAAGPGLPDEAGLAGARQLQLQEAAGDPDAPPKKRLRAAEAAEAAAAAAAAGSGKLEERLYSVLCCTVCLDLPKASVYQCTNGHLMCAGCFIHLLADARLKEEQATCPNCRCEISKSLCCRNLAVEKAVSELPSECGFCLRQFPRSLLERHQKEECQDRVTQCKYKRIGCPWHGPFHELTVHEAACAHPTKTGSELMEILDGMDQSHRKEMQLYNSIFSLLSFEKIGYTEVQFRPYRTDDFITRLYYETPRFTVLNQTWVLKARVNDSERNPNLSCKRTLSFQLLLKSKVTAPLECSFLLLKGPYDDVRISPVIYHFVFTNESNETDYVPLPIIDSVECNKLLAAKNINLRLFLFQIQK
UniProt P10619: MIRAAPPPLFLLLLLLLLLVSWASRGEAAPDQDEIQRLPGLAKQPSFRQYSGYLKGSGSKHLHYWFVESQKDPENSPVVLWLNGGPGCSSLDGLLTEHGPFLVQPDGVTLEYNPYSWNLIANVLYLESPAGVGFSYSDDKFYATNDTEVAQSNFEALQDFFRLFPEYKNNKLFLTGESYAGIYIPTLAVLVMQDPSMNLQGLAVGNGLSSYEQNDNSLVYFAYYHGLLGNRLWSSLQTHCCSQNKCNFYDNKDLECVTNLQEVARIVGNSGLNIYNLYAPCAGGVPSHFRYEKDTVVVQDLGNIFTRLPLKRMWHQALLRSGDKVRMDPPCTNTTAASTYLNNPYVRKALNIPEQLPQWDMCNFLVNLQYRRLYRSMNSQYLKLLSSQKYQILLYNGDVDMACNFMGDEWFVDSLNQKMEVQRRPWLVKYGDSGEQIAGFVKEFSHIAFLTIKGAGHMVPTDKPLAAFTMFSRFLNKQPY
UniProt O43310: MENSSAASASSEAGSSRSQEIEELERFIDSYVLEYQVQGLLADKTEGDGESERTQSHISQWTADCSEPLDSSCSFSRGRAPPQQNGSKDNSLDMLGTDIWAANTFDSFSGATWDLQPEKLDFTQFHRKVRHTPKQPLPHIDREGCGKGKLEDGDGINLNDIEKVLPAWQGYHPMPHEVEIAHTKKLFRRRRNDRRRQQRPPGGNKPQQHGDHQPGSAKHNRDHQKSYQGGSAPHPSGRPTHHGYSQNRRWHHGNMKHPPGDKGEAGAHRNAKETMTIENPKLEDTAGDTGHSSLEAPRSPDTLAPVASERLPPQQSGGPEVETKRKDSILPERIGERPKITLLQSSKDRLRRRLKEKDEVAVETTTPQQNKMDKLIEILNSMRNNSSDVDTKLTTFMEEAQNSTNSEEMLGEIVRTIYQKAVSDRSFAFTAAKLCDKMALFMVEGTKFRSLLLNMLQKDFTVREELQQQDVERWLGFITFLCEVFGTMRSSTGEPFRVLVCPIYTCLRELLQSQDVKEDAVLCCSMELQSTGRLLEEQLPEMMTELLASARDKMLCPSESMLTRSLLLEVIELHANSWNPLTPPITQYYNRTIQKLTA
UniProt Q13620, whole entry, looked up: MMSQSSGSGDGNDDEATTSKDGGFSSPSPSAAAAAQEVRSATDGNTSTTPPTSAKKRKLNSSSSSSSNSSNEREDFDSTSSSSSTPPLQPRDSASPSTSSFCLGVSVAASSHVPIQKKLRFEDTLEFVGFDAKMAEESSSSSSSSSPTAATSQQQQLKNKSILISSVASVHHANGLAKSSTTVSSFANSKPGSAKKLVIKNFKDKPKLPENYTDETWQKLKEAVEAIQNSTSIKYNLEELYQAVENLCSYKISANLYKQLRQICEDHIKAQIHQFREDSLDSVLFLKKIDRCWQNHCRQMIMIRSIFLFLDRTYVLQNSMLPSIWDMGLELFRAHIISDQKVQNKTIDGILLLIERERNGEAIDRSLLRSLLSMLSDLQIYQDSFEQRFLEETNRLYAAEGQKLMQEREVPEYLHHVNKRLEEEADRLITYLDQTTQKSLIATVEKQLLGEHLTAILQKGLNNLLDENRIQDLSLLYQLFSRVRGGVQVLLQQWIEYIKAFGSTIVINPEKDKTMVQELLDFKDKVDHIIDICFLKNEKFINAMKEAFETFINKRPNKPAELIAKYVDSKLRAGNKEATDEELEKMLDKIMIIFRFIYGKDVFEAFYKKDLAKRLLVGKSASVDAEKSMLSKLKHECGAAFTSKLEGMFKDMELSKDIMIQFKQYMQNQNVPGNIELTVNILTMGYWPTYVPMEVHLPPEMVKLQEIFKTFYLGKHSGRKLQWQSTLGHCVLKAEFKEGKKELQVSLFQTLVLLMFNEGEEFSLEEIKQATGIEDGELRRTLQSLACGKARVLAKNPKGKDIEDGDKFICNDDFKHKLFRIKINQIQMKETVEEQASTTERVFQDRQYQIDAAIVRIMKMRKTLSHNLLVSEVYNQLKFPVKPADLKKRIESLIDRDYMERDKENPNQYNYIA
UniProt O75534: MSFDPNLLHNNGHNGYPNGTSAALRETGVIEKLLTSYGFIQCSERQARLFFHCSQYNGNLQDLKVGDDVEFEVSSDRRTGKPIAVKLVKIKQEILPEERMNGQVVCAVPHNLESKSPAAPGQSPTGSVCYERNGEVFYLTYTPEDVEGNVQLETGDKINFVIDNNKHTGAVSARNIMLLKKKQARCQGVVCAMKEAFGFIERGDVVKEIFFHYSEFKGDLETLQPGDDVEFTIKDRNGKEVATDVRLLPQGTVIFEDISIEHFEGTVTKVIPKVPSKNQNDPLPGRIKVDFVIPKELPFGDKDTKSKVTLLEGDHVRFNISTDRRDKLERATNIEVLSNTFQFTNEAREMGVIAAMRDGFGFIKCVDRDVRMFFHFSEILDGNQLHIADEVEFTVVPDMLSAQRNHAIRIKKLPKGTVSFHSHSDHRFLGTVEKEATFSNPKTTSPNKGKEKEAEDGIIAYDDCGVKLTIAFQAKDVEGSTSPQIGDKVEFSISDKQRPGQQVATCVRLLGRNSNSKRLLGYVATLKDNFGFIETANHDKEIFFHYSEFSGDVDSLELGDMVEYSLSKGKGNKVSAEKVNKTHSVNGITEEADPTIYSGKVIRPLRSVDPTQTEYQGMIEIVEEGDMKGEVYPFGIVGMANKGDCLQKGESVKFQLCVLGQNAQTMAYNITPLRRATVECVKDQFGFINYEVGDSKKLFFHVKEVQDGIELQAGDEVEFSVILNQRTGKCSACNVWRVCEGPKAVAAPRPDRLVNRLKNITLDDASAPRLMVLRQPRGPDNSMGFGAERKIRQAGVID
UniProt P17812: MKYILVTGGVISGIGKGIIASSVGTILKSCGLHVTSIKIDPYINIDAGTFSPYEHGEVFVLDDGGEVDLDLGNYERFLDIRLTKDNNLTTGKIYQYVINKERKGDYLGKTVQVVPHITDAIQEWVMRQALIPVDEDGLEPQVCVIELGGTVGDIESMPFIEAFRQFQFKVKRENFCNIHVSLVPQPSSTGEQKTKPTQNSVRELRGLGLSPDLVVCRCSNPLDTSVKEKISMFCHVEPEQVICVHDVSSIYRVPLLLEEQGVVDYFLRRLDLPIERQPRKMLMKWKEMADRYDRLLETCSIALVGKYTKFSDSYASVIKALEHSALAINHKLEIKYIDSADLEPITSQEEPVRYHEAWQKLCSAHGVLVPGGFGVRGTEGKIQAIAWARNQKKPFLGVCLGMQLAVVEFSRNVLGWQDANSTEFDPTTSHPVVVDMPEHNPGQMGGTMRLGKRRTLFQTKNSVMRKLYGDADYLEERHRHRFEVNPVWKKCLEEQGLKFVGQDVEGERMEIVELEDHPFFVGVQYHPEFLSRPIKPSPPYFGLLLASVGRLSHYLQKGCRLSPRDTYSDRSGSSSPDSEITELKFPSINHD

Experiments:
Test in all cases: log2 fold change, soluble protein after heating vs DMSO (PISA); higher = thermal stabilisation; K562 lysate, 10 uM; active = over 0.2 and 3.5 SD of the protein, either way, in both replicates (recomputed)
erlotinib = compound: C#Cc1cccc(Nc2ncnc3cc(OCCOC)c(OCCOC)cc23)c1 [erlotinib]
In short: (§1)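 Values give the log-two fold change in thermal stability against solvent controls, from duplicates. Crude K562 extract at 1 mg/mL protein, made by dounce homogenisation in PBS pH 7.4 with 1 mM MgCl2, was treated with 10 μM compound for 30 min. After 3 min heating across 48°C-58°C, aliquots were pooled, adjusted to 0.5% NP-40 at 4°C and centrifuged at 21,000xg for 90 min. The supernatant was measured by TMTpro 16plex LC-MS/MS with channel sums equalised.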

[1] = compound: C/C(=N\NC(=O)C1=CC(=CC=C1)S(=O)(=O)N2CCOCC2)/C3=C(C=CC(=C3)Cl)O
In short: as §1

[2] = compound: C1=CC(=CC=C1C2=NC3=C(N2)C=C(C=C3)C(=O)N)OC4=CC=C(C=C4)Cl
In short: as §1

[3] = compound: C1=CC2=C(C=CC(=C2)/C=C\3/C(=O)NC(=NCC4=CC=CS4)S3)N=C1
In short: as §1

[4] = compound: C1=CC2=NC=CN=C2C=C1/C=C/3\C(=O)NC(=O)S3
In short: as §1

[5] = compound: C1=CC=C(C=C1)C2=NC(=C(N2)C3=CC=NC=C3)C4=CC(=C(C=C4)Cl)O
In short: as §1

[6] = compound: C1=CC=C2C(=C1)C3=NNC4=CC=CC(=C43)C2=O
In short: as §1

[7] = compound: C1CCN(C1)C(=O)NC2=CC=CC(=C2)NC3=NC=C(C(=N3)NCCC4=CN=CN4)Br
In short: as §1

[8] = compound: C1CN(CCC1(CC2=CC=C(C=C2)Cl)N)C3=NC=NC4=C3C=CN4
In short: as §1

IRAK-1-4 Inhibitor I = compound: C1COCCN1CCN2C3=CC=CC=C3N=C2NC(=O)C4=CC(=CC=C4)[N+](=O)[O-] [IRAK-1-4 Inhibitor I]
In short: as §1

ibrutinib = compound: C=CC(=O)N1CCC[C@@H](n2nc(-c3ccc(Oc4ccccc4)cc3)c3c(N)ncnc32)C1 [ibrutinib]
In short: as §1

[9] = compound: CC(=O)c1cnc2ccc(-c3cc(Cl)c(O)c(Cl)c3)nc2c1N[C@H]1CC[C@H](CN(C)C)CC1
In short: as §1

ralimetinib = compound: CC(C)(C)Cn1c(N)nc2ccc(-c3[nH]c(C(C)(C)C)nc3-c3ccc(F)cc3)nc21 [ralimetinib]
In short: as §1

[10] = compound: CC(C)(O)CC(=O)NCCn1ccc2ncnc(Nc3ccc(Oc4cccc(C(F)(F)F)c4)c(Cl)c3)c21
In short: as §1

[11] = compound: CC(C)C1=C2N=C(C=C(N2N=C1)NCC3=CC=CC=C3)NCCCCCCN
In short: as §1

[12] = compound: CC1=C(C(CC(=O)N1)C2=CC=C(C=C2)C(F)(F)F)C(=O)NC3=C(C=C4C(=C3)C=NN4)F
In short: as §1

[13] = compound: CC1=C(C2=C(C=C1)C(=O)C3=CC=CC=C3N2CCCN)C
In short: as §1

[14] = compound: CC1=C(C=C(C=C1)NC(=O)C2=CC(=CC=C2)C(C)(C)C#N)NC3=CC4=C(C=C3)N=CN(C4=O)C
In short: as §1

[15] = compound: CC1=C(C=C(C=C1)NC(=O)C2=CC(=CC=C2)N(C)C)NC(=O)C3=CC=C(C=C3)O
In short: as §1

[16] = compound: CC1=CC=C(C=C1)SC2=C3C=C(SC3=CN=C2)C(=O)N
In short: as §1

Target | log2 fold change (erlotinib) | log2 fold change [1] | log2 fold change [2] | log2 fold change [3] | log2 fold change [4] | log2 fold change [5] | log2 fold change [6] | log2 fold change [7] | log2 fold change [8] | log2 fold change (IRAK-1-4 Inhibitor I) | log2 fold change (ibrutinib) | log2 fold change [9] | log2 fold change (ralimetinib) | log2 fold change [10] | log2 fold change [11] | log2 fold change [12] | log2 fold change [13] | log2 fold change [14] | log2 fold change [15] | log2 fold change [16]
CRLF3 (UniProt Q8IUI8) | inactive: 0.033 | inactive: 0.022 | inactive: -0.004 | inactive: -0.007 | inactive: -0.001 | inactive: 0.017 | inactive: 0.006 | inactive: -0.019 | inactive: 0.021 | inactive: 0 | inactive: -0.006 | inactive: -0.026 | inactive: 0 | inactive: -0.013 | inactive: 0.009 | inactive: -0.006 | inactive: -0.004 | inactive: 0.054 | inactive: 0.021 | inactive: -0.027
CREB1 (UniProt P16220) | inactive: -0.043 | inactive: 0.026 | inactive: -0.031 | inactive: 0.029 | inactive: 0.003 | inactive: 0.044 | inactive: 0.079 | inactive: 0.077 | inactive: -0.03 | inactive: -0.013 | inactive: -0.05 | inactive: -0.035 | inactive: -0.03 | inactive: 0.049 | inactive: -0.064 | inactive: -0.004 | inactive: -0.017 | inactive: -0.031 | inactive: -0.013 | inactive: 0
CSTF2T (UniProt Q9H0L4) | inactive: 0.018 | inactive: 0.007 | inactive: 0.011 | inactive: -0.006 | inactive: -0.015 | inactive: -0.002 | inactive: -0.012 | inactive: 0.045 | inactive: 0.014 | inactive: -0.002 | inactive: 0.112 | inactive: -0.017 | inactive: 0.016 | inactive: -0.017 | inactive: -0.004 | inactive: 0.015 | inactive: -0.004 | inactive: -0.015 | inactive: -0.023 | inactive: -0.02
CSNK2A2 (UniProt P19784) | inactive: 0 | inactive: -0.209 | inactive: -0.015 | inactive: 0.383 | active: 0.699 | inactive: 0.032 | inactive: 0.375 | inactive: 0.277 | inactive: 0.024 | inactive: 0.022 | inactive: -0.015 | active: 0.666 | inactive: 0.012 | inactive: -0.014 | inactive: -0.01 | inactive: -0.046 | inactive: 0.185 | inactive: -0.017 | inactive: 0.003 | inactive: 0
CTU2 (UniProt Q2VPK5) | inactive: -0.002 | inactive: -0.007 | inactive: 0.008 | inactive: -0.012 | inactive: -0.013 | inactive: -0.011 | inactive: 0.035 | inactive: 0 | inactive: -0.003 | inactive: -0.02 | inactive: 0.041 | inactive: 0.003 | inactive: 0.055 | inactive: 0.019 | inactive: -0.004 | inactive: 0.031 | inactive: 0.012 | inactive: -0.04 | inactive: -0.012 | inactive: 0.007
CST3 (UniProt P01034) | inactive: -0.077 | inactive: 0.113 | inactive: -0.008 | inactive: -0.083 | inactive: 0.056 | inactive: -0.065 | inactive: 0.074 | inactive: 0.029 | inactive: -0.091 | inactive: -0.027 | inactive: 0.019 | inactive: 0.042 | inactive: -0.054 | inactive: 0.027 | inactive: 0.054 | inactive: 0.683 | inactive: -0.016 | inactive: -0.054 | inactive: 0.046 | inactive: -0.035
CTSZ (UniProt Q9UBR2) | inactive: -0.018 | inactive: 0.008 | inactive: 0.032 | inactive: -0.008 | inactive: 0.011 | inactive: 0 | inactive: 0.021 | inactive: -0.007 | inactive: 0.029 | inactive: -0.021 | inactive: -0.023 | inactive: 0.001 | inactive: -0.007 | inactive: -0.007 | inactive: -0.045 | inactive: 0.022 | inactive: 0.008 | inactive: -0.024 | inactive: 0.046 | inactive: -0.001
CS (UniProt O75390) | inactive: -0.033 | inactive: 0.08 | inactive: -0.002 | inactive: -0.031 | inactive: -0.021 | inactive: -0.011 | inactive: -0.014 | inactive: -0.047 | inactive: 0.015 | inactive: 0.025 | inactive: -0.004 | inactive: 0.009 | inactive: -0.002 | inactive: 0.007 | inactive: -0.009 | inactive: -0.022 | inactive: -0.018 | inactive: 0.019 | inactive: 0.013 | inactive: 0.015
CYHR1 (UniProt E9PJD7) | inactive: 0.04 | inactive: 0.109 | inactive: 0.066 | inactive: -0.035 | inactive: 0.059 | inactive: 0 | inactive: 0.03 | inactive: -0.06 | inactive: 0.019 | inactive: 0.029 | inactive: -0.029 | inactive: 0.028 | inactive: 0.005 | inactive: -0.062 | inactive: 0.015 | inactive: 0.016 | inactive: 0.02 | inactive: 0.091 | inactive: -0.023 | inactive: 0.052
CTSA (UniProt P10619) | inactive: 0 | inactive: 0.011 | inactive: 0.021 | inactive: 0.022 | inactive: 0.039 | inactive: -0.01 | inactive: -0.033 | inactive: -0.02 | inactive: 0.035 | inactive: -0.009 | inactive: -0.066 | inactive: -0.008 | inactive: 0.01 | inactive: 0.017 | inactive: 0.027 | inactive: 0.018 | inactive: 0.048 | inactive: -0.003 | inactive: 0.034 | inactive: 0
CTSB (UniProt P07858) | inactive: -0.001 | inactive: -0.036 | inactive: 0.015 | inactive: -0.007 | inactive: -0.013 | inactive: 0.004 | inactive: 0.015 | inactive: -0.002 | inactive: 0.025 | inactive: 0.026 | inactive: 0.01 | inactive: 0.015 | inactive: 0.008 | inactive: -0.014 | inactive: 0.013 | inactive: -0.016 | inactive: 0 | inactive: -0.004 | inactive: -0.013 | inactive: 0.05
CTTN (UniProt Q14247) | inactive: -0.042 | inactive: -0.006 | inactive: -0.04 | inactive: -0.017 | inactive: -0.026 | inactive: -0.009 | inactive: -0.018 | inactive: 0.028 | inactive: -0.023 | inactive: -0.028 | inactive: 0.007 | inactive: 0.014 | inactive: 0.026 | inactive: 0.075 | inactive: -0.062 | inactive: 0.007 | inactive: -0.021 | inactive: -0.132 | inactive: -0.075 | inactive: -0.001
CTIF isoform 2 (UniProt O43310) | inactive: 0.01 | inactive: -0.022 | inactive: -0.031 | inactive: -0.012 | inactive: 0 | inactive: 0.007 | inactive: 0.001 | inactive: -0.096 | inactive: 0.039 | inactive: 0.022 | inactive: 0.007 | inactive: 0.037 | inactive: -0.004 | inactive: -0.026 | inactive: -0.022 | inactive: 0.038 | inactive: -0.05 | inactive: -0.012 | inactive: 0.032 | inactive: -0.014
CUL4B (UniProt Q13620) | inactive: 0.006 | inactive: 0.014 | inactive: 0.022 | inactive: 0.006 | inactive: -0.027 | inactive: -0.002 | inactive: -0.002 | inactive: -0.014 | inactive: 0.018 | inactive: 0.004 | inactive: -0.004 | inactive: -0.009 | inactive: 0.017 | inactive: -0.023 | inactive: -0.019 | inactive: -0.028 | inactive: -0.011 | inactive: 0.003 | inactive: -0.006 | inactive: -0.009
CSDE1 isoform 4 (UniProt O75534) | inactive: -0.025 | inactive: 0.009 | inactive: -0.035 | inactive: 0.001 | inactive: -0.023 | inactive: -0.021 | inactive: -0.002 | inactive: 0.016 | inactive: -0.001 | inactive: -0.017 | inactive: -0.007 | inactive: -0.003 | inactive: 0.017 | inactive: 0.03 | inactive: 0.003 | inactive: -0.013 | inactive: 0.004 | inactive: -0.022 | inactive: 0.012 | inactive: 0.009
CTPS1 (UniProt P17812) | inactive: -0.002 | inactive: 0.011 | inactive: -0.027 | inactive: -0.009 | inactive: 0.005 | inactive: -0.013 | inactive: -0.011 | inactive: -0.007 | inactive: -0.007 | inactive: -0.001 | inactive: -0.045 | inactive: 0.01 | inactive: -0.017 | inactive: -0.015 | inactive: -0.022 | inactive: -0.012 | inactive: 0.024 | inactive: 0.004 | inactive: 0.017 | inactive: 0.02

Single records, from the list above. Order of values: log2 fold change (erlotinib)	log2 fold change [1]	log2 fold change [2]	log2 fold change [3]	log2 fold change [4]	log2 fold change [5]	log2 fold change [6]	log2 fold change [7]	log2 fold change [8]	log2 fold change (IRAK-1-4 Inhibitor I)	log2 fold change (ibrutinib)	log2 fold change [9]	log2 fold change (ralimetinib)	log2 fold change [10]	log2 fold change [11]	log2 fold change [12]	log2 fold change [13]	log2 fold change [14]	log2 fold change [15]	log2 fold change [16]
CTU2 (UniProt Q2VPK5) is entered as inactive: -0.002	inactive: -0.007	inactive: 0.008	inactive: -0.012	inactive: -0.013	inactive: -0.011	inactive: 0.035	inactive: 0	inactive: -0.003	inactive: -0.02	inactive: 0.041	inactive: 0.003	inactive: 0.055	inactive: 0.019	inactive: -0.004	inactive: 0.031	inactive: 0.012	inactive: -0.04	inactive: -0.012	inactive: 0.007
CUL4B (UniProt Q13620) is entered as inactive: 0.006	inactive: 0.014	inactive: 0.022	inactive: 0.006	inactive: -0.027	inactive: -0.002	inactive: -0.002	inactive: -0.014	inactive: 0.018	inactive: 0.004	inactive: -0.004	inactive: -0.009	inactive: 0.017	inactive: -0.023	inactive: -0.019	inactive: -0.028	inactive: -0.011	inactive: 0.003	inactive: -0.006	inactive: -0.009
